According to publication PMC8350576:
Results are given in words; binding and its absence hold for the method and conditions named. Binding seen in cells or lysates may run through a third protein. Some binding calls cover weakened binding; strength is not graded here.

Protein sequences, listed by entry. Tags and fused reporters are not part of them.
UniProt P49950: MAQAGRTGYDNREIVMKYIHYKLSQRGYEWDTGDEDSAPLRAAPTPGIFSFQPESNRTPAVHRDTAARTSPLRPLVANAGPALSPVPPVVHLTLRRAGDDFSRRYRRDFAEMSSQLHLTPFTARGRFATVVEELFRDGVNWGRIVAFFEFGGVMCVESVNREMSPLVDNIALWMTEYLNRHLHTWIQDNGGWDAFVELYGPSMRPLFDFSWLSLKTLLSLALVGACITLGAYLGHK
UniProt Q63690: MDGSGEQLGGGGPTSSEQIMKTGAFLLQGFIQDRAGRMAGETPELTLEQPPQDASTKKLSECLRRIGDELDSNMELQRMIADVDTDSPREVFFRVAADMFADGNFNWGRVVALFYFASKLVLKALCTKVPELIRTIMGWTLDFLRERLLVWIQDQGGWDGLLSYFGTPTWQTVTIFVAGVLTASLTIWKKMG

Legend:
[1] = biological target: Bcl-2 (rat (endogenous in Sprague-Dawley rat hippocampus)) (UniProt P49950); assay: co-IP; 500 ug total protein of rat ipsilateral hippocampus, day 3 after injury; precipitated with anti-Bcl-2 or anti-Bad and protein A/G agarose overnight at 4°C, rinsed four times with NP-40 buffer, western blot for Bcl-2, Bax and Bad; IgG as negative control; animals: sham, CCI, CCI + CORT 0.3, 3 or 30 mg/kg, CORT + SPIRO, CORT + RU486
[2] = biological target: T1, Bad (rat (endogenous in Sprague-Dawley rat hippocampus)) (UniProt O35147); assay: as above
T1 sequence: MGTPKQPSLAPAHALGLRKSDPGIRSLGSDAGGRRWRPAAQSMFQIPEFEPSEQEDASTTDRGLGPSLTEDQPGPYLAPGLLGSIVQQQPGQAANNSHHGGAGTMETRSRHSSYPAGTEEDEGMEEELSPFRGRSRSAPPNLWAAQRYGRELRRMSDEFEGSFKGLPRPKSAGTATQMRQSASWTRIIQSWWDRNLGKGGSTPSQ

| Substance | binding [1] | binding [2] |
| --- | --- | --- |
| Bax (from UniProt Q63690 1-192) | binds | – |
| Bcl-2 (from UniProt P49950 1-236) | – | binds |
